# Test results: the supplement of paper PMC8728848
# The list shows a part of the results.
# B1: PEB1 (Campylobacter jejuni), Q0P9X8 (protein)
# chain: MVFRKSLLKLAVFALGACVAFSNANAAEGKLESIKSKGQLIVGVKNDVPHYALLDQATGEIKGFEVDVAKLLAKSILGDDKKIKLVAVNAKTRGPLLDNGSVDAVIATFTITPERKRIYNFSEPYYQDAIGLLVLKEKKYKSLADMKGANIGVAQAATTKKAIGEAAKKIGIDVKFSEFPDYPSIKAALDAKRVDAFSVDKSILLGYVDDKSEILPDSFEPQSYGIVTKKDDPAFAKYVDDFVKEHKNEIDALAKKWGL
# How the values were obtained:
# Assay in all cases: glycan array binding signal (z-score within array); higher = stronger binding
# Conditions in all cases: glycan notation: IUPAC condensed, linker removed
# [1] = molecular target: Gal(b1-4)GlcNAc(b1-6)[Gal(b1-3)]GalNAc
# Summary of the method: (§1)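 Glycan array binding is given as a within-array Z-score, which can be read as non-binding when negative. The arrays, 3228 of them, came from the Consortium for Functional Glycomics database and were retained only where the protein sequence was available. Z-scores were averaged across arrays of the same protein sequence at different concentrations or buffers and across linkers.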
# [2] = molecular target: Gal3S(b1-3)GalNAc
# Summary of the method: as §1
# [3] = molecular target: Gal3S(b1-3)GlcNAc
# Summary of the method: as §1
# [4] = molecular target: Gal3S(b1-3)[Fuc(a1-4)]GlcNAc
# Summary of the method: as §1
# [5] = molecular target: Gal3S(b1-4)Glc
# Summary of the method: as §1
# [6] = molecular target: Gal3S(b1-4)Glc6S
# Summary of the method: as §1
# [7] = molecular target: Gal3S(b1-4)GlcNAc
# Summary of the method: as §1
# [8] = molecular target: Gal3S(b1-4)GlcNAc6S
# Summary of the method: as §1
# [9] = molecular target: Gal3S(b1-4)[Fuc(a1-3)]Glc
# Summary of the method: as §1
# [10] = molecular target: Gal3S(b1-4)[Fuc(a1-3)]Glc6S
# Summary of the method: as §1
# [11] = molecular target: Gal3S4S(b1-4)GlcNAc
# Summary of the method: as §1
# [12] = molecular target: Gal3S6S(b1-4)GlcNAc
# Summary of the method: as §1
# [13] = molecular target: Gal3S6S(b1-4)GlcNAc6S
# Summary of the method: as §1
# [14] = molecular target: Gal4S(b1-4)GlcNAc
# Summary of the method: as §1
# [15] = molecular target: Gal4S6S(b1-4)GlcNAc
# Summary of the method: as §1
# [16] = molecular target: Gal6S(b1-4)Glc
# Summary of the method: as §1
# [17] = molecular target: Gal6S(b1-4)Glc6S
# Summary of the method: as §1
# [18] = molecular target: Gal6S(b1-4)GlcNAc
# Summary of the method: as §1
# [19] = molecular target: Gal6S(b1-4)GlcNAc6S
# Summary of the method: as §1
# [20] = molecular target: GalNAc(a1-3)Gal
# Summary of the method: as §1
# [21] = molecular target: GalNAc(a1-3)GalNAc
# Summary of the method: as §1
# [22] = molecular target: GalNAc(a1-3)GalNAc(a1-3)Gal(a1-4)Gal(b1-4)GlcNAc
# Summary of the method: as §1
# [23] = molecular target: GalNAc(b1-3)Gal
# Summary of the method: as §1
# [24] = molecular target: GalNAc(b1-3)Gal(a1-4)Gal(b1-4)GlcNAc
# Summary of the method: as §1
# [25] = molecular target: GalNAc(b1-3)Gal(a1-4)Gal(b1-4)GlcNAc(b1-3)Gal(b1-4)Glc
# Summary of the method: as §1
# [26] = molecular target: GalNAc(b1-3)Gal(a1-6)Gal(b1-4)Glc
# Summary of the method: as §1
# [27] = molecular target: GalNAc(b1-3)GalNAc
# Summary of the method: as §1
# [28] = molecular target: GalNAc(b1-4)GlcNAc
# Summary of the method: as §1
# [29] = molecular target: GalNAc(b1-4)GlcNAc(b1-2)Man(a1-3)[GalNAc(b1-4)GlcNAc(b1-2)Man(a1-6)]Man(b1-4)GlcNAc(b1-4)GlcNAc
# Summary of the method: as §1
# [30] = molecular target: Glc(a1-4)Glc
# Summary of the method: as §1
# [31] = molecular target: Glc(a1-6)Glc(a1-6)Glc
# Summary of the method: as §1
# [32] = molecular target: Glc(b1-4)Glc
# Summary of the method: as §1
# [33] = molecular target: Glc(b1-6)Glc
# Summary of the method: as §1
# [34] = molecular target: GlcA(b1-3)Gal
# Summary of the method: as §1
# [35] = molecular target: GlcA(b1-3)GlcNAc
# Summary of the method: as §1
# [36] = molecular target: GlcA(b1-6)Gal
# Summary of the method: as §1
# [37] = molecular target: GlcNAc(a1-3)Gal(b1-4)GlcNAc
# Summary of the method: as §1
# [38] = molecular target: GlcNAc(a1-4)Gal(b1-3)GlcNAc
# Summary of the method: as §1
binder,measurement,setting,value
B1,glycan array binding signal (z-score),[1],0.298
same,glycan array binding signal (z-score),[2],0.473
same,glycan array binding signal (z-score),[3],0.944
same,glycan array binding signal (z-score),[4],-0.449
same,glycan array binding signal (z-score),[5],-1.26
same,glycan array binding signal (z-score),[6],1.36
same,glycan array binding signal (z-score),[7],-0.108
same,glycan array binding signal (z-score),[8],-0.449
same,glycan array binding signal (z-score),[9],1.04
same,glycan array binding signal (z-score),[10],0.849
same,glycan array binding signal (z-score),[11],-0.191
same,glycan array binding signal (z-score),[12],0.952
same,glycan array binding signal (z-score),[13],0.386
same,glycan array binding signal (z-score),[14],-0.323
same,glycan array binding signal (z-score),[15],0.407
same,glycan array binding signal (z-score),[16],0.11
same,glycan array binding signal (z-score),[17],0.171
same,glycan array binding signal (z-score),[18],0.319
same,glycan array binding signal (z-score),[19],0.367
same,glycan array binding signal (z-score),[20],-0.378
same,glycan array binding signal (z-score),[21],0.558
same,glycan array binding signal (z-score),[22],-0.658
same,glycan array binding signal (z-score),[23],-1.12
same,glycan array binding signal (z-score),[24],-0.938
same,glycan array binding signal (z-score),[25],-1.06
same,glycan array binding signal (z-score),[26],0.441
same,glycan array binding signal (z-score),[27],-0.428
same,glycan array binding signal (z-score),[28],-0.358
same,glycan array binding signal (z-score),[29],4.17
same,glycan array binding signal (z-score),[30],-0.677
same,glycan array binding signal (z-score),[31],-0.133
same,glycan array binding signal (z-score),[32],0.505
same,glycan array binding signal (z-score),[33],0.439
same,glycan array binding signal (z-score),[34],-0.129
same,glycan array binding signal (z-score),[35],-1
same,glycan array binding signal (z-score),[36],-0.703
same,glycan array binding signal (z-score),[37],-0.709
same,glycan array binding signal (z-score),[38],-0.298
